Assay results as given in patent publication US20080176963A1, “TREATMENT OF BRAIN DISORDERS OF THE STRIATUM” (priority 2007, published 2008).

Tests used:
[1] = test system: indirect-pathway MSN synapses; assay: LTD induced by high-frequency afferent stimulation, whole-cell recording in striatal slices of control mice; assay type: cell-based, mouse; conditions: indirect-pathway MSNs; AM251 1 μM; sulpiride 10 μM; methysergide 4 μM, GR125487 1 μM, LY278584 1 μM, prazosin 2 μM, propranolol 1 μM; without drug 51±5%
[2] = test system: indirect-pathway MSN synapses; assay: LTD induced by tetanic stimulation in striatal slices from reserpine-treated mice; assay type: cell-based, mouse

Cc1c(C(=O)NN2CCCCC2)nn(-c2ccc(Cl)cc2Cl)c1-c1ccc(I)cc1 [AM251]
EPSC after LTD induction, % of baseline at 30-40 min [1]: 107±10 % of baseline
EPSC after LTD induction, % of baseline at 30-40 min [2]: 129±7 % of baseline
